From publication PMC6899518
Positions count from the first letter of the chain named. Names may count otherwise. Results are given in words; binding and its absence hold for the method and conditions named. Binding seen in cells or lysates may run through a third protein. Some binding calls cover weakened binding; strength is not graded here. Where a sequence is shown, tags or fusion partners need not be part of it.

Chains of the proteins cited; added tags and fusions are not shown. Lines headed by an entry give the natural chain unless they say otherwise; changes in a name come on top.
UniProt P29469: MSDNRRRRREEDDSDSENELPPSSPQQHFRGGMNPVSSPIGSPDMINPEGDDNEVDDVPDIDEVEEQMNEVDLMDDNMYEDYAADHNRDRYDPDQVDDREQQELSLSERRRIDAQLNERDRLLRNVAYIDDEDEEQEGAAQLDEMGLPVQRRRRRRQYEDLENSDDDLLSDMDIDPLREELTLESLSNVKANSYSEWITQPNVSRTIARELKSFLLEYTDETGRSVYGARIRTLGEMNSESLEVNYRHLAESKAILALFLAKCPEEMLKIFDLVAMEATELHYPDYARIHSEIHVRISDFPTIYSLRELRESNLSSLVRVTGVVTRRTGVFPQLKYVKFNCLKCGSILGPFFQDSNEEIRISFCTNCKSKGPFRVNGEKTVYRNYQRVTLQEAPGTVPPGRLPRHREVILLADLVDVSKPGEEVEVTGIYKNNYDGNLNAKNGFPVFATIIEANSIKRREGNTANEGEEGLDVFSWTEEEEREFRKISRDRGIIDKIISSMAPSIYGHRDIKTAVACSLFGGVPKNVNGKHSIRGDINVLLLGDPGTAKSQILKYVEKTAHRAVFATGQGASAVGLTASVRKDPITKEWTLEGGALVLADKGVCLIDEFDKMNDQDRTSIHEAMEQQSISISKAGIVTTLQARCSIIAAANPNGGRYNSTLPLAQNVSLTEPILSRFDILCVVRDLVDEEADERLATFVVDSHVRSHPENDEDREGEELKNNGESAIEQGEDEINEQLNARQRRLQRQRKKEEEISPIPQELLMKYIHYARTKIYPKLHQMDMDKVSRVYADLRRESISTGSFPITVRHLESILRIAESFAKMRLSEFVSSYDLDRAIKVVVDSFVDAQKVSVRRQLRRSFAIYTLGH
UniProt P24279: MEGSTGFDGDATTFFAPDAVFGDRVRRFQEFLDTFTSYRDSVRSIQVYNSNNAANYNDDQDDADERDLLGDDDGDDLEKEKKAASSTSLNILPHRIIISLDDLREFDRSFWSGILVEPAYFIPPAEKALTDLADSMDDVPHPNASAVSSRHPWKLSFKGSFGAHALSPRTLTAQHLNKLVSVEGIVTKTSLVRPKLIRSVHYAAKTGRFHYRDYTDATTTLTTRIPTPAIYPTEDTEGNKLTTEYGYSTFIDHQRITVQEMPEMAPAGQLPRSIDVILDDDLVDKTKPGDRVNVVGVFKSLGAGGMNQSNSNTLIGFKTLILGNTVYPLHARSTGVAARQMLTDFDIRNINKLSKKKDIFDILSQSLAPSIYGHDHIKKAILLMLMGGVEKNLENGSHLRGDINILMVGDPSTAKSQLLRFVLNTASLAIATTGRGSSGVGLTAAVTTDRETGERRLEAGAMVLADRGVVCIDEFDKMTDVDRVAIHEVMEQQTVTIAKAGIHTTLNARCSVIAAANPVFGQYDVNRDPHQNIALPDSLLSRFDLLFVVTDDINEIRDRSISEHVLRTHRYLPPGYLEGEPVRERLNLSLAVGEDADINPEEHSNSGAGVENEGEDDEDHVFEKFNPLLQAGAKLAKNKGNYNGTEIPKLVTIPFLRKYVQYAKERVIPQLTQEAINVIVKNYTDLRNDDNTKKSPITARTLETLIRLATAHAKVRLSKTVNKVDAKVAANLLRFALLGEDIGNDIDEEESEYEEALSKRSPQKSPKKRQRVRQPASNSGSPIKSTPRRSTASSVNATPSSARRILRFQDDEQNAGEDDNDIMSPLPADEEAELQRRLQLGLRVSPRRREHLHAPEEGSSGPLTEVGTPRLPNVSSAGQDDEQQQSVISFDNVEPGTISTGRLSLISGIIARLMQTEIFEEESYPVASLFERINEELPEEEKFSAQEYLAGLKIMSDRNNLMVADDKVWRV

T1: TAP-tagged Sld5 subunit of GINS (S. cerevisiae) (UniProt Q03406)
T1 sequence: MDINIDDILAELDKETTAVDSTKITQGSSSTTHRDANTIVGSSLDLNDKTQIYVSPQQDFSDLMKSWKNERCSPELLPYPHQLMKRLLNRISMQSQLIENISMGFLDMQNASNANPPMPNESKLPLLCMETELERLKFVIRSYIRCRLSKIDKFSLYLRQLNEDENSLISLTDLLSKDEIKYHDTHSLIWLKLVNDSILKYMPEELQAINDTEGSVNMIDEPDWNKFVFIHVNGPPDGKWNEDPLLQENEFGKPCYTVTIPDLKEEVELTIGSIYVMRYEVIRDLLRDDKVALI

T2: ProteinA-tagged Dia2 1–732 (full-length Dia2) (S. cerevisiae) (UniProt Q08496)
T2 sequence: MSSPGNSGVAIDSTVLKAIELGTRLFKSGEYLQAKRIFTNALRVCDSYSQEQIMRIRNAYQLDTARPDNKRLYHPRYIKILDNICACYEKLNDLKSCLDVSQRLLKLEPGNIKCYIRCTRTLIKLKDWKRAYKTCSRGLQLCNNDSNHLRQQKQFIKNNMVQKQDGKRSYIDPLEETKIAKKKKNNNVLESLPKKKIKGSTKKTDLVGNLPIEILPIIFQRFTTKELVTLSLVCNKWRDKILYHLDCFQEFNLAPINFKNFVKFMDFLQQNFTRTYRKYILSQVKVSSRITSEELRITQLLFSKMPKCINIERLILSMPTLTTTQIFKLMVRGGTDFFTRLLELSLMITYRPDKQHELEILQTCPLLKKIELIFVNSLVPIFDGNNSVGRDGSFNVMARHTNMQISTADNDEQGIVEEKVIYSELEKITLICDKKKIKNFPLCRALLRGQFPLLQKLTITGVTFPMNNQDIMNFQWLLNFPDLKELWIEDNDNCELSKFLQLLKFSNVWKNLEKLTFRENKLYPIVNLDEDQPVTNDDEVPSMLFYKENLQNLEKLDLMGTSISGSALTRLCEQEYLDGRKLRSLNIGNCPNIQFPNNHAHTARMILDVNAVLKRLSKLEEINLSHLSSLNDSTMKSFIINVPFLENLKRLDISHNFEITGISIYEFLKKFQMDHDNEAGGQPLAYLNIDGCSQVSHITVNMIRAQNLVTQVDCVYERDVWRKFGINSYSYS

B1: Psf1 subunit of GINS (protein, UniProt Q12488 1-208)
chain: MYGDLGNKLVLEAKRTKQLYARSNQDVNLPMYHEDIIRNILKEVSNLRKNTEYLKEQQQLGMLDDKVAKCQYFVTLLCMERNKRCLLAYQRLRTDILDSMAWNNNGLDLMSSITFSQQDTNNLSHQEQEYLKEYCDLITDLKSGDLVDIDLSGSLVPPSDVFIDVRVLKDAGEIQTEYGVFNLIKDSQFFVRQSDVERLIQQGYLQKI
B2: Cdc45 (protein, UniProt Q08032 1-650)
chain: MYYGISQFSEAYNKILRNSSSHSSCQLVIFVSCLNIDALCATKMLSLLFKKQLVQSQIVPIFGYSELRRHYSQLDDNINSLLLVGFGGVIDLEAFLEIDPQEYVIDTDEKSGEQSFRRDIYVLDAHRPWNLDNIFGSQIIQCFDDGTVDDTLGEQKEAYYKLLELDEESGDDELSGDENDNNGGDDEATDADEVTDEDEEDEDETISNKRGNSSIGPNDLSKRKQRKKQIHEYEGVLEEYYSQGTTVVNSISAQIYSLLSAIGETNLSNLWLNILGTTSLDIAYAQVYNRLYPLLQDEVKRLTPSSRNSVKTPDTLTLNIQPDYYLFLLRHSSLYDSFYYSNYVNAKLSLWNENGKKRLHKMFARMGIPLSTAQETWLYMDHSIKRELGIIFDKNLDRYGLQDIIRDGFVRTLGYRGSISASEFVEALTALLEVGNSTDKDSVKINNDNNDDTDGEEEEDNSAQKLTNLRKRWVSNFWLSWDALDDRKVELLNRGIQLAQDLQRAIFNTGVAILEKKLIKHLRIYRLCVLQDGPDLDLYRNPLTLLRLGNWLIECCAESEDKQLLPMVLASIDENTDTYLVAGLTPRYPRGLDTIHTKKPILNNFSMAFQQITAETDAKVRIDNFESSIIEIRREDLSPFLEKLTLSGLL
B3: GINS component of the CMG helicase (from PSF2-5FLAG cells) (complex, UniProt Q03406 1-294; Q12488 1-208; P40359 1-213; Q12146 1-194)
chain 1: T1 sequence
chain 2: B1 chain
chain 3: MSLPAHLQQTFSPEEIQFIVENEPIKIFPRITTRQKIRGDDRGTGNHTRWQLITTDDKALNNMVAMRSTEVVLWIALLLKQQSKCSIVAPQWLTTKELDRKIQYEKTHPDRFSELPWNWLVLARILFNKAKDDFHDPIHELRGKIQDLREIRQIKVLKGLKYLNESHLQLDNLSLLEINELRPFITEIMDKLREIHTASLTAGTENDEEEFNI
chain 4: MGYYDIDDVLADGTEFPCKFQYDIPGLGYLENNPGRPITKNTKLSLPLWLARILAIVGGDEALVDEEPVPFVELLPPDMFSTKVMNAIKTDPVALDLHSINSHFFSLAIKWIMLFSEKELANVVSELLLQRAQELNHHASSLSIDLNADSTGKNSANTNIATSTFLLKLEEMEKEIYKKSHESYKDTKRWMFKK
B4: Mcm7 subunit of CMG (protein, UniProt P38132 1-845)
chain: MSAALPSIQLPVDYNNLFNEITDFLVTFKQDTLSSDATRNENEDENLDAENIEQHLLEKGPKYMAMLQKVANRELNSVIIDLDDILQYQNEKFLQGTQADDLVSAIQQNANHFTELFCRAIDNNMPLPTKEIDYKDDVLDVILNQRRLRNERMLSDRTNEIRSENLMDTTMDPPSSMNDALREVVEDETELFPPNLTRRYFLYFKPLSQNCARRYRKKAISSKPLSVRQIKGDFLGQLITVRGIITRVSDVKPAVEVIAYTCDQCGYEVFQEVNSRTFTPLSECTSEECSQNQTKGQLFMSTRASKFSAFQECKIQELSQQVPVGHIPRSLNIHVNGTLVRSLSPGDIVDVTGIFLPAPYTGFKALKAGLLTETYLEAQFVRQHKKKFASFSLTSDVEERVMELITSGDVYNRLAKSIAPEIYGNLDVKKALLLLLVGGVDKRVGDGMKIRGDINVCLMGDPGVAKSQLLKAICKISPRGVYTTGKGSSGVGLTAAVMKDPVTDEMILEGGALVLADNGICCIDEFDKMDESDRTAIHEVMEQQTISISKAGINTTLNARTSILAAANPLYGRYNPRLSPLDNINLPAALLSRFDILFLMLDIPSRDDDEKLAEHVTYVHMHNKQPDLDFTPVEPSKMREYIAYAKTKRPVMSEAVNDYVVQAYIRLRQDSKREMDSKFSFGQATPRTLLGIIRLSQALAKLRLADMVDIDDVEEALRLVRVSKESLYQETNKSKEDESPTTKIFTIIKKMLQETGKNTLSYENIVKTVRLRGFTMLQLSNCIQEYSYLNVWHLINEGNTLKFVDDGTMDTDQEDSLVSTPKLAPQTTASANVSAQDSDIDLQDA
B5: Mcm7-K29A (protein, UniProt P38132 1-845)
chain: B4 chain with K29A

target: T1, TAP-tagged Sld5 subunit of GINS (S. cerevisiae); assay: co-IP; TAP-Sld5 isolated on IgG-coupled magnetic beads from 'high-salt' extracts (700 mM potassium acetate) after depletion of Cdc48-aid and release from HU arrest at 37°C; chromosomal DNA digested; immunoblotting; cdc48-aid and cdc48-aid rsp5-1 cells

binding	Molecule
binds	B1
binds	B2

target: T2, ProteinA-tagged Dia2 1–732 (full-length Dia2) (S. cerevisiae); assay: co-IP; ProteinA-tagged Dia2 isolated on IgG-coated magnetic beads from concentrated yeast cell extracts, 2 h; washed in 100 mM Tris-acetate pH 9.0, 100 mM potassium acetate, 10 mM magnesium acetate, 0.1% IGEPAL CA-630; bound proteins boiled off or released with TEV protease; immunoblotting

binding	Molecule
binds	Mcm2–7 components of CMG (from UniProt P29469 1-868; P24279 1-971; P30665 1-933; P29496 1-775; P53091 1-1017; P38132 1-845) (complex)
binds	Mcm3 (from UniProt P24279 1-971)
binds	B3
binds	B4
binds	B5
binds	B2
